Measured values reported in US8778888B2, “Cystine knot peptides binding to alpha IIb beta 3 integrins and methods of use” (The Board of Trustees of the Leland Stanford Junior …, priority 2009, dated 2014).
At least one structure is not confirmed: it was looked up by name or label, or the drawing left a doubt.

Amino acid sequences for entries named in this document (tags omitted). Residues count along the entry.
UniProt P05106, 27-788: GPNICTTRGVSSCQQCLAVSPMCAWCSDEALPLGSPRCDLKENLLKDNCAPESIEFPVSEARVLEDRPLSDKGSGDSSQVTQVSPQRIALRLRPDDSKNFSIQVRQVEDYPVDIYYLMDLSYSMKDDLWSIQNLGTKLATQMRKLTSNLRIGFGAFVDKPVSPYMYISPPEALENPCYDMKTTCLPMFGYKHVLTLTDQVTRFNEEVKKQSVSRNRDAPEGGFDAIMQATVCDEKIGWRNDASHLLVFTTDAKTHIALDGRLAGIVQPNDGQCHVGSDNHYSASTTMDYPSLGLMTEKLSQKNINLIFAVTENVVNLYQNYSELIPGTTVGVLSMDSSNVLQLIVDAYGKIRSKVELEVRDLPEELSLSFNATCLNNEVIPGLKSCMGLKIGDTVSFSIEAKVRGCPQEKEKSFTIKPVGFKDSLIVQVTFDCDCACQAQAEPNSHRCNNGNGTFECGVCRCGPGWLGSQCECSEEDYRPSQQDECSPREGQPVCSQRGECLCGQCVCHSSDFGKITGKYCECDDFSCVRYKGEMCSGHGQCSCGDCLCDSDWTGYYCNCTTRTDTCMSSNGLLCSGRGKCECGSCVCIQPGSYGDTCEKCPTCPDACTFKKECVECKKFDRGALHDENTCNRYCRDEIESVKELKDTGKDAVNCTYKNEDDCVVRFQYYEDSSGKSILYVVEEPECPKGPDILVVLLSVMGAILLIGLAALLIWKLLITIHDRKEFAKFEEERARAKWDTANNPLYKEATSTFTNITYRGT
UniProt P08514, 32-887 limits assumed: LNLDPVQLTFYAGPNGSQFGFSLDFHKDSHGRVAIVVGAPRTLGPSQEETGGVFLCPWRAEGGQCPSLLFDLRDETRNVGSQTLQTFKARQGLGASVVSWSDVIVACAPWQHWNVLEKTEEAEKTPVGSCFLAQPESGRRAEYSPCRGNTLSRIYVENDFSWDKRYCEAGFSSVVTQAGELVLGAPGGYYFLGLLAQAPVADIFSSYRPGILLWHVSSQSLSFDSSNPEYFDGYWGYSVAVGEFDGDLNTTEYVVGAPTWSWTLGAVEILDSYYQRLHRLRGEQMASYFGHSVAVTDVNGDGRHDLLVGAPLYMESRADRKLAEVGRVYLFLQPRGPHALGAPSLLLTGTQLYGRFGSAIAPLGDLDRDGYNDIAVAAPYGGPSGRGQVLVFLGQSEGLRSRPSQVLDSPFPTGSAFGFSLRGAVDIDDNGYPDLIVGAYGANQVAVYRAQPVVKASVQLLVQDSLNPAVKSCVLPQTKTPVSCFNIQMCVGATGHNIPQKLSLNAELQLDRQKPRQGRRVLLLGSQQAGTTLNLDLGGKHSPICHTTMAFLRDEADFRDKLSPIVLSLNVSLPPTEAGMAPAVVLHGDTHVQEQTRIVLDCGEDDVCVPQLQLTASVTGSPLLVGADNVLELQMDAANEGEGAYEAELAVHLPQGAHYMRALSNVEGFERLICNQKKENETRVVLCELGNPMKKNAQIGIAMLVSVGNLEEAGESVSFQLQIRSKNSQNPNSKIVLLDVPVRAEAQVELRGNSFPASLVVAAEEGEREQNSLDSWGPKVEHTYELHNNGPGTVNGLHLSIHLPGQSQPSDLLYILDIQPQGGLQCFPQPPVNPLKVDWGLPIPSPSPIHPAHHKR
UniProt P08514, 891-1039 partner limits assumed: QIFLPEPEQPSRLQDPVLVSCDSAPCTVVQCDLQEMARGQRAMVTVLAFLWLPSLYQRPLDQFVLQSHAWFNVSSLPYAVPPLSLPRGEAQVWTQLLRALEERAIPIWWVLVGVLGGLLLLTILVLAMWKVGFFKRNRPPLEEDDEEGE
UniProt P06756, 891-1048 partner limits assumed: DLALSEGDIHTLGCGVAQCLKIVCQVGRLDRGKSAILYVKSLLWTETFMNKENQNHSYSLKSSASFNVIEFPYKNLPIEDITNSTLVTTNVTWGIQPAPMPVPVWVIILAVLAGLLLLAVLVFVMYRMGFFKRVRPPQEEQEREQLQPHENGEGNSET
UniProt P06756, 31-889 limits assumed: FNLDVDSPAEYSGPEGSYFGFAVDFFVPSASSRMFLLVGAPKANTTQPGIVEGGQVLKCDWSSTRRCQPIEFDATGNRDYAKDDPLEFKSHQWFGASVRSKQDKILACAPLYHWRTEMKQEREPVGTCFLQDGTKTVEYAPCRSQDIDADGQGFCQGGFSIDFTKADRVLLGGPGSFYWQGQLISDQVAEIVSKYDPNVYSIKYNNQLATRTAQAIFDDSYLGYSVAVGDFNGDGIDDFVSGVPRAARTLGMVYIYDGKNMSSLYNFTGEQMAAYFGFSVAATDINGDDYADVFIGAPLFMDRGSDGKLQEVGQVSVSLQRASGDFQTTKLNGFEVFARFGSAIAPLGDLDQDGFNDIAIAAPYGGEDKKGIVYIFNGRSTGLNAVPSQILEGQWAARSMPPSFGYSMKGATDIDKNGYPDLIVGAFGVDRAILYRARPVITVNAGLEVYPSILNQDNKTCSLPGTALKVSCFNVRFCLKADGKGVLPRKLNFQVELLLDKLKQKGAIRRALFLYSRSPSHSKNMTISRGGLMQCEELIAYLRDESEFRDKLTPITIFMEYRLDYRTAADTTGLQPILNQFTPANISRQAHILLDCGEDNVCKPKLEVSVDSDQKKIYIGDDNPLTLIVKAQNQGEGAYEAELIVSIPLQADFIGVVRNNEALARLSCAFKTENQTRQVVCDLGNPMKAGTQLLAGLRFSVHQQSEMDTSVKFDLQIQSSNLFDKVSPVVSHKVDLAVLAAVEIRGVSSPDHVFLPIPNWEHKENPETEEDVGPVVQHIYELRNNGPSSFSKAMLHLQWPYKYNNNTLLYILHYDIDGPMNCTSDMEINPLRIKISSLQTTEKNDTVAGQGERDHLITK

Key:
[1] = target: T1, αIIbβ3 integrin (K562-αIIbβ3 cells) (Homo sapiens, UniProt P05106+P08514); experiment: Cell binding assay on K562-αIIbβ3 cells (flow cytometry); settings: read-out: binding (KD; nM) K562-αIIbβ3, soluble peptide, 4° C., average ± standard deviation
T1 construct: expressed in transfected cells; host or cells: K562 leukemia cells (from S. Blystone)
Procedure: K562 cells stably expressing αIIbβ3, αvβ3, or αvβ5 were obtained from S. Blystone and maintained in IMDM media (Gibco) containing 10% FBS and 1.0 mg/mL geneticin. For binding assays, 10^5 cells were suspended in IBB, and varying concentrations of AgRP peptides were added. After 3 hour incubation at 4° C., the cells were centrifuged, aspirated, and resuspended in ice-cold BPBS containing a 1:20 dilution of fluorescein-conjugated goat anti-His antibody (Bethyl) for […]. The cells were then centrifuged, aspirated, and stored as pellets on ice until analysis by flow cytometry using a BD FACS Caliber instrument Becton Dickinson. Binding data was analyzed with FlowJo (Treestar, Inc.) and data was fit to sigmoidal plots using Kaleidagraph (Synergy Software) to calculate equilibrium dissociation constants. Experiments were performed at least 3 times and data are presented as average values with standard deviations.
To determine the integrin binding affinities and specificities of the engineered AgRP peptides, direct binding assays were performed using K562 leukemia cells that have been transfected to stably express different integrin receptors See J. Cell Biol. 127(4) (1994). […] Equilibrium dissociation constants (KD values) were determined by plotting AgRP peptide concentration (log scale) versus normalized mean fluorescence intensity, then fitting the data to a sigmoidal curve.

[2] = target: T2, αvβ3 integrin (K562-αvβ3 cells) (Homo sapiens, UniProt P05106+P06756); experiment: Cell binding assay on K562-αvβ3 cells (flow cytometry); settings: read-out: binding (KD; nM) K562-αvβ3; soluble peptide, 4° C.; nd^1 = no binding observed at the highest concentration tested, 1 μM
T2 construct: expressed in transfected cells; host or cells: K562 leukemia cells (from S. Blystone)

| SMILES | Kd [1] [nM] | Kd [2] [nM] |
| --- | --- | --- |
| CC(C)C[C@@H]1NC(=O)[C@@H]2CSSC[C@@H]3NC(=O)[C@H]([C@@H](C)O)NC(=O)[C@H](C)NC(=O)[C@H](C)NC(=O)[C@@H]4CCCN4C(=O)[C@H](CC(=O)O)NC(=O)[C@H](CSSC[C@H](NC(=O)CNC(=O)[C@H](CCCNC(=N)N)NC(=O)[C@@H]4CCCN4C(=O)[C@H](CCCCN)NC(=O)[C@H](CC(=O)O)NC(=O)[C@H](CC(=O)O)NC(=O)[C@H](CC(=O)O)NC(=O)[C@H](CC(=O)O)NC(=O)[C@H](CCCCN)NC(=O)[C@H](Cc4ccc(O)cc4)NC(=O)[C@H](CC(=O)O)NC(=O)[C@@H](NC(=O)[C@@H](N)Cc4ccc(O)cc4)C(C)C)C(=O)N[C@@H](C(C)C)C(=O)N[C@@H](CCCNC(=N)N)C(=O)N[C@@H](CC(C)C)C(=O)N[C@@H](Cc4c[nH]cn4)C(=O)N[C@@H](CCC(=O)O)C(=O)N[C@@H](CO)C(=O)N2)NC(=O)[C@H](CSSC[C@@H](C(=O)N[C@@H](CCCNC(=N)N)C(=O)N[C@H](C(=O)N[C@@H](CCCNC(=N)N)C(=O)N[C@@H](Cc2c[nH]cn2)C(=O)N[C@@H](Cc2c[nH]cn2)C(=O)N[C@@H](Cc2c[nH]cn2)C(=O)N[C@@H](Cc2c[nH]cn2)C(=O)N[C@@H](Cc2c[nH]cn2)C(=O)N[C@@H](Cc2c[nH]cn2)C(=O)O)[C@@H](C)O)NC(=O)[C@H](Cc2ccc(O)cc2)NC(=O)[C@@H]2CSSC[C@H](NC(=O)[C@H](Cc4ccc(O)cc4)NC3=O)C(=O)N[C@@H](CC(C)C)C(=O)N[C@@H](CCCCN)C(=O)N[C@@H](CCCNC(=N)N)C(=O)NCC(=O)N[C@@H](CC(=O)O)C(=O)N[C@@H](Cc3c[nH]c4ccccc34)C(=O)N[C@@H](CCCCN)C(=O)NCC(=O)N[C@@H](CCCCN)C(=O)N2)NC(=O)[C@@H]2CCCN2C(=O)[C@H](C(C)C)NC(=O)[C@H](CCC(N)=O)NC(=O)[C@H](CCC(N)=O)NC(=O)CNC1=O [Clone 2bA] | 87 ± 11 |  |
| CC(C)C[C@@H]1NC(=O)[C@@H]2CSSC[C@@H]3NC(=O)[C@H]([C@@H](C)O)NC(=O)[C@H](C)NC(=O)[C@H](C)NC(=O)[C@@H]4CCCN4C(=O)[C@H](CC(=O)O)NC(=O)[C@H](CSSC[C@H](NC(=O)CNC(=O)[C@H](CCCNC(=N)N)NC(=O)[C@@H]4CCCN4C(=O)[C@H](CCCCN)NC(=O)[C@H](CC(=O)O)NC(=O)[C@H](CC(=O)O)NC(=O)[C@H](CC(=O)O)NC(=O)[C@H](CC(=O)O)NC(=O)[C@H](CCCCN)NC(=O)[C@H](Cc4ccc(O)cc4)NC(=O)[C@H](CC(=O)O)NC(=O)[C@@H](NC(=O)[C@@H](N)Cc4ccc(O)cc4)C(C)C)C(=O)N[C@@H](C(C)C)C(=O)N[C@@H](CCCNC(=N)N)C(=O)N[C@@H](CC(C)C)C(=O)N[C@@H](Cc4c[nH]cn4)C(=O)N[C@@H](CCC(=O)O)C(=O)N[C@@H](CO)C(=O)N2)NC(=O)[C@H](CSSC[C@@H](C(=O)N[C@@H](CCCNC(=N)N)C(=O)N[C@H](C(=O)N[C@@H](CCCNC(=N)N)C(=O)N[C@@H](Cc2c[nH]cn2)C(=O)N[C@@H](Cc2c[nH]cn2)C(=O)N[C@@H](Cc2c[nH]cn2)C(=O)N[C@@H](Cc2c[nH]cn2)C(=O)N[C@@H](Cc2c[nH]cn2)C(=O)N[C@@H](Cc2c[nH]cn2)C(=O)O)[C@@H](C)O)NC(=O)[C@H](Cc2ccc(O)cc2)NC(=O)[C@@H]2CSSC[C@H](NC(=O)[C@H](Cc4ccc(O)cc4)NC3=O)C(=O)N[C@@H](CCCCN)C(=O)N[C@@H](CCCCN)C(=O)N[C@@H](CCCNC(=N)N)C(=O)NCC(=O)N[C@@H](CC(=O)O)C(=O)N[C@@H](Cc3c[nH]c4ccccc34)C(=O)N[C@@H](CCCCN)C(=O)N[C@@H](CCC(=O)O)C(=O)N[C@@H](CCCNC(=N)N)C(=O)N2)NC(=O)[C@@H]2CCCN2C(=O)[C@H](C(C)C)NC(=O)[C@H](CCC(N)=O)NC(=O)[C@H](CCC(N)=O)NC(=O)CNC1=O [Clone 2bO] | 87 ± 17 |  |
| CC(C)C[C@@H]1NC(=O)[C@@H]2CSSC[C@@H]3NC(=O)[C@H]([C@@H](C)O)NC(=O)[C@H](C)NC(=O)[C@H](C)NC(=O)[C@@H]4CCCN4C(=O)[C@H](CC(=O)O)NC(=O)[C@H](CSSC[C@H](NC(=O)CNC(=O)[C@H](CCCNC(=N)N)NC(=O)[C@@H]4CCCN4C(=O)[C@H](CCCCN)NC(=O)[C@H](CC(=O)O)NC(=O)[C@H](CC(=O)O)NC(=O)[C@H](CC(=O)O)NC(=O)[C@H](CC(=O)O)NC(=O)[C@H](CCCCN)NC(=O)[C@H](Cc4ccc(O)cc4)NC(=O)[C@H](CC(=O)O)NC(=O)[C@@H](NC(=O)[C@@H](N)Cc4ccc(O)cc4)C(C)C)C(=O)N[C@@H](C(C)C)C(=O)N[C@@H](CCCNC(=N)N)C(=O)N[C@@H](CC(C)C)C(=O)N[C@@H](Cc4c[nH]cn4)C(=O)N[C@@H](CCC(=O)O)C(=O)N[C@@H](CO)C(=O)N2)NC(=O)[C@H](CSSC[C@@H](C(=O)N[C@@H](CCCNC(=N)N)C(=O)N[C@H](C(=O)N[C@@H](CCCNC(=N)N)C(=O)N[C@@H](Cc2c[nH]cn2)C(=O)N[C@@H](Cc2c[nH]cn2)C(=O)N[C@@H](Cc2c[nH]cn2)C(=O)N[C@@H](Cc2c[nH]cn2)C(=O)N[C@@H](Cc2c[nH]cn2)C(=O)N[C@@H](Cc2c[nH]cn2)C(=O)O)[C@@H](C)O)NC(=O)[C@H](Cc2ccc(O)cc2)NC(=O)[C@@H]2CSSC[C@H](NC(=O)[C@H](Cc4ccc(O)cc4)NC3=O)C(=O)N[C@@H](C(C)C)C(=O)NCC(=O)N[C@@H](CCCNC(=N)N)C(=O)NCC(=O)N[C@@H](CC(=O)O)C(=O)N[C@@H](C(C)C)C(=O)N[C@@H](CCCNC(=N)N)C(=O)N[C@@H](CCCNC(=N)N)C(=O)N[C@@H](CCCCN)C(=O)N2)NC(=O)[C@@H]2CCCN2C(=O)[C@H](C(C)C)NC(=O)[C@H](CCC(N)=O)NC(=O)[C@H](CCC(N)=O)NC(=O)CNC1=O [b3A] |  | ~25 |
| CC(C)C[C@@H]1NC(=O)[C@@H]2CSSC[C@@H]3NC(=O)[C@H]([C@@H](C)O)NC(=O)[C@H](C)NC(=O)[C@H](C)NC(=O)[C@@H]4CCCN4C(=O)[C@H](CC(=O)O)NC(=O)[C@H](CSSC[C@H](NC(=O)CNC(=O)[C@H](CCCNC(=N)N)NC(=O)[C@@H]4CCCN4C(=O)[C@H](CCCCN)NC(=O)[C@H](CC(=O)O)NC(=O)[C@H](CC(=O)O)NC(=O)[C@H](CC(=O)O)NC(=O)[C@H](CC(=O)O)NC(=O)[C@H](CCCCN)NC(=O)[C@H](Cc4ccc(O)cc4)NC(=O)[C@H](CC(=O)O)NC(=O)[C@@H](NC(=O)[C@@H](N)Cc4ccc(O)cc4)C(C)C)C(=O)N[C@@H](C(C)C)C(=O)N[C@@H](CCCNC(=N)N)C(=O)N[C@@H](CC(C)C)C(=O)N[C@@H](Cc4c[nH]cn4)C(=O)N[C@@H](CCC(=O)O)C(=O)N[C@@H](CO)C(=O)N2)NC(=O)[C@H](CSSC[C@@H](C(=O)N[C@@H](CCCNC(=N)N)C(=O)N[C@H](C(=O)N[C@@H](CCCNC(=N)N)C(=O)N[C@@H](Cc2c[nH]cn2)C(=O)N[C@@H](Cc2c[nH]cn2)C(=O)N[C@@H](Cc2c[nH]cn2)C(=O)N[C@@H](Cc2c[nH]cn2)C(=O)N[C@@H](Cc2c[nH]cn2)C(=O)N[C@@H](Cc2c[nH]cn2)C(=O)O)[C@@H](C)O)NC(=O)[C@H](Cc2ccc(O)cc2)NC(=O)[C@@H]2CSSC[C@H](NC(=O)[C@H](Cc4ccc(O)cc4)NC3=O)C(=O)N[C@@H](CCCNC(=N)N)C(=O)NCC(=O)N[C@@H](CCCNC(=N)N)C(=O)NCC(=O)N[C@@H](CC(=O)O)C(=O)N[C@@H](C(C)C)C(=O)N[C@@H](CCCCN)C(=O)N[C@@H](CC(C)C)C(=O)N[C@@H](CCCNC(=N)N)C(=O)N2)NC(=O)[C@@H]2CCCN2C(=O)[C@H](C(C)C)NC(=O)[C@H](CCC(N)=O)NC(=O)[C@H](CCC(N)=O)NC(=O)CNC1=O [b3I] |  | ~25 |
